Test [1] has as its target T1, mRuby2-Flag-GGGS-NECAP1, wild type (human) (UniProt Q8NC96).
T1 sequence: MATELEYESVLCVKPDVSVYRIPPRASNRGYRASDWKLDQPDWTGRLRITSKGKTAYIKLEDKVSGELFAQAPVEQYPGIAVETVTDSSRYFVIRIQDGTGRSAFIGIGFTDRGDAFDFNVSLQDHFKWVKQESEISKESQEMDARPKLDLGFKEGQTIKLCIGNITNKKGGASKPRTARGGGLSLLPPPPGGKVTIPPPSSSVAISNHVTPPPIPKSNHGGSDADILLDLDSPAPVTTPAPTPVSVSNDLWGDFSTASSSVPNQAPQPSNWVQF
Briefly: co-IP; immunoprecipitation of NECAP1-mRuby2 from cells; details not shown.

Protein sequences, listed by entry. Tags and fused reporters are not part of them.
UniProt Q9Y5X1: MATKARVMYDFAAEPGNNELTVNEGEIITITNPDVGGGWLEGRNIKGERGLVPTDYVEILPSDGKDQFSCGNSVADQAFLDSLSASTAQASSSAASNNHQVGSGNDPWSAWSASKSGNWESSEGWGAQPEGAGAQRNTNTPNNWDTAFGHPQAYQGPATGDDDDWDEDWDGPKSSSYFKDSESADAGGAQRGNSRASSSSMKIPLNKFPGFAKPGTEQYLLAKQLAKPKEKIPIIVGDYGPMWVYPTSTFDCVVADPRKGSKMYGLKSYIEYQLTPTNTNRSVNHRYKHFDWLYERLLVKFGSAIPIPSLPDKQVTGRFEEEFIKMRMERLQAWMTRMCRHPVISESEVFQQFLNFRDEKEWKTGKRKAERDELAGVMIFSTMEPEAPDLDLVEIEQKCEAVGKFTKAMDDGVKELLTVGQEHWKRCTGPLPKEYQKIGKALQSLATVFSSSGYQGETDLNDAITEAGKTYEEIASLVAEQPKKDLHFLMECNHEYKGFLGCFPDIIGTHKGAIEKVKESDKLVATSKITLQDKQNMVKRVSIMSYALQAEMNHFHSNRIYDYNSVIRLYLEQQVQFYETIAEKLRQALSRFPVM

The target in test [2] is T2, NECAP1 PHear domain (NECAP 1-133), wild type (UniProt Q8NC96).
T2 sequence: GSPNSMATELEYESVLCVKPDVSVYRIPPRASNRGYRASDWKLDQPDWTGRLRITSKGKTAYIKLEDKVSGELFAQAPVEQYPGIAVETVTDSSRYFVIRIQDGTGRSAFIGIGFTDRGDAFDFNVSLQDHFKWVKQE
Kind of test: ITC; Nano ITC, 12°C, 75 mM HEPES pH 7.4, 0.25 mM TCEP; PHear domains in the cell, peptides at 1-5 mM titrated in; both purified. A general note: ITC needs no label: the signal is the heat of the interaction.

Binding data for two molecules are collected here from PMC6706699 (Developmental Cell, 2019).

Results are given in words; binding and its absence hold for the method and conditions named. For some assays here: Binding seen in cells or lysates may run through a third protein. Some binding calls cover weakened binding; strength is not graded here. For some assays here: Tags and fused reporters may be left off the sequences shown.

In the case of “SNX9, endogenous in human non-neuronal cells (from UniProt Q9Y5X1 1-595)”, the binding entry in test [1] is reported as “binds”.

B1: SNX9 FxDxΦ peptide FLDSL (peptide)
peptide: FLDSL
Take B1: the binding entry in test [2] was “binds weakly”.
